# According to the supplement of paper PMC12889115:
# The list shows a part of the results. These are raw signals, not scaled to a control.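 First-pass screen: polymyxin B was added at a level that permeabilizes the Salmonella outer membrane while sparing the inner membrane. DMSO wells, with and without polymyxin B, defined maximum growth. Because plates differed from one another, each plate's data were ranked separately and the compounds with the lowest OD600 were carried forward as hits.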
# System: Salmonella enterica serovar Typhimurium SL1344
# Experiment: bacterial growth OD600 after 18 h with compound and polymyxin B; higher = more bacterial growth (less inhibition)
# Conditions: 50 µM, Mueller-Hinton broth
SMILES,bacterial growth OD600 (polymyxin B 0.75 µg/mL),bacterial growth OD600 (polymyxin B 1 µg/mL)
Cc1nc(N2CCC(C(=O)NCCOC(C)C)CC2)nc2cc(S(C)(=O)=O)ccc12,0.874,
Cc1cccc(CN2CCCC(O)(CNC3CCCCC3)C2=O)c1 (stereo not given),0.831,
COc1cccc(CN2CCC(C(Cc3ccccc3F)N(C)C(=O)c3ccsc3)CC2)c1O (stereo not given),0.688,
COc1ccc(OC)c(CN2CCC3(CC2)CC3C(=O)N(C)CCOc2ccc(C)cc2)c1 (stereo not given),0.822,
COc1ccc(OC)c(-c2cc(Cl)c3c(c2)CC(CNC(=O)C(C)(C)C)O3)c1 (stereo not given),0.005,
O=C(Cn1c(=O)oc2ccccc21)NC1CCCN(CCCc2ccccc2)C1 (stereo not given),,1.18
Cc1cc(C(=O)N2CCOc3ccc(CN4CCOCC4)cc3C2)c2cccc(C)c2n1,0.847,
Cc1ccc2oc(C(=O)NCCc3nc4ccccc4[nH]3)c(C)c2c1,,1.06
CCN(Cc1ccncc1)C(=O)c1cc(COc2ccc3c(c2)OCO3)[nH]n1,,0.866
COc1ccc(CC2(CCC(=O)NCCCn3nnc4ccccc43)CCC(=O)N2)c(F)c1 (stereo not given),0.91,
CC1CCCN(C(=O)c2coc(COc3cccc(F)c3F)n2)C1 (stereo not given),,0.612
COCC(=O)Nc1cnn(-c2cccc(C(=O)N(C)Cc3ccc(Oc4ccccc4)cc3)c2)c1,0.834,
Cc1ncc2c(c1CNC(=O)c1ccccc1F)CCN(C(=O)Cc1ccc(F)c(F)c1)C2,0.797,
CCc1cc(C(=O)NCc2nc(-c3ccc(NC(=O)c4ccc(COC)o4)cc3)oc2C)no1,0.66,
Fc1cccc(CCC2CCCN(Cc3ncc[nH]3)C2)c1 (stereo not given),0.758,
CCOc1ccc2nc(N3CCC(C(=O)N4CCN(C5CCCCC5)CC4)CC3)nc(C)c2c1,0.044,
O=C(Nc1ccc(-c2cscn2)cc1)C1CCCN(Cc2cccc(O)c2)C1 (stereo not given),0.693,
O=C(CCC1CCN(C(=O)CSc2ccccc2)CC1)NCC1CCCO1 (stereo not given),,0.759
O=C(CCC1CCN(C(=O)C2CC(=O)N(C3CC3)C2)CC1)Nc1ccc2c(c1)OCCO2 (stereo not given),,0.923
O=C1CC(CC(=O)N2CCCCC2c2nccs2)(c2cccc(F)c2)C(=O)N1Cc1cccnc1 (stereo not given),0.941,

# 2 consecutive records already listed, for reference:
SMILES,bacterial growth OD600 (polymyxin B 0.75 µg/mL),bacterial growth OD600 (polymyxin B 1 µg/mL)
COc1ccc(OC)c(-c2cc(Cl)c3c(c2)CC(CNC(=O)C(C)(C)C)O3)c1 (stereo not given),0.005,
O=C(Cn1c(=O)oc2ccccc21)NC1CCCN(CCCc2ccccc2)C1 (stereo not given),,1.18
